Results as given in the supplement of paper PMC10849652.
Some of the results follow.

By UniProt entry, the sequences of proteins in these tests, tags left out. Where a name states a change or a piece, a line headed by the entry shows the natural chain unless it says otherwise.
UniProt Q9NVT9: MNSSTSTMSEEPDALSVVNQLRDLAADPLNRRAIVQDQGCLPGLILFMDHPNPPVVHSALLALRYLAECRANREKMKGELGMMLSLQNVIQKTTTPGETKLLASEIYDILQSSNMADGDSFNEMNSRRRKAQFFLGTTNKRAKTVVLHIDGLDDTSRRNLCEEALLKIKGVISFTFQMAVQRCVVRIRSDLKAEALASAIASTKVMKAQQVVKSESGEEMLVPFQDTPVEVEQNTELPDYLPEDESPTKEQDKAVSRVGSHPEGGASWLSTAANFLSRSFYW
UniProt Q9ULH1: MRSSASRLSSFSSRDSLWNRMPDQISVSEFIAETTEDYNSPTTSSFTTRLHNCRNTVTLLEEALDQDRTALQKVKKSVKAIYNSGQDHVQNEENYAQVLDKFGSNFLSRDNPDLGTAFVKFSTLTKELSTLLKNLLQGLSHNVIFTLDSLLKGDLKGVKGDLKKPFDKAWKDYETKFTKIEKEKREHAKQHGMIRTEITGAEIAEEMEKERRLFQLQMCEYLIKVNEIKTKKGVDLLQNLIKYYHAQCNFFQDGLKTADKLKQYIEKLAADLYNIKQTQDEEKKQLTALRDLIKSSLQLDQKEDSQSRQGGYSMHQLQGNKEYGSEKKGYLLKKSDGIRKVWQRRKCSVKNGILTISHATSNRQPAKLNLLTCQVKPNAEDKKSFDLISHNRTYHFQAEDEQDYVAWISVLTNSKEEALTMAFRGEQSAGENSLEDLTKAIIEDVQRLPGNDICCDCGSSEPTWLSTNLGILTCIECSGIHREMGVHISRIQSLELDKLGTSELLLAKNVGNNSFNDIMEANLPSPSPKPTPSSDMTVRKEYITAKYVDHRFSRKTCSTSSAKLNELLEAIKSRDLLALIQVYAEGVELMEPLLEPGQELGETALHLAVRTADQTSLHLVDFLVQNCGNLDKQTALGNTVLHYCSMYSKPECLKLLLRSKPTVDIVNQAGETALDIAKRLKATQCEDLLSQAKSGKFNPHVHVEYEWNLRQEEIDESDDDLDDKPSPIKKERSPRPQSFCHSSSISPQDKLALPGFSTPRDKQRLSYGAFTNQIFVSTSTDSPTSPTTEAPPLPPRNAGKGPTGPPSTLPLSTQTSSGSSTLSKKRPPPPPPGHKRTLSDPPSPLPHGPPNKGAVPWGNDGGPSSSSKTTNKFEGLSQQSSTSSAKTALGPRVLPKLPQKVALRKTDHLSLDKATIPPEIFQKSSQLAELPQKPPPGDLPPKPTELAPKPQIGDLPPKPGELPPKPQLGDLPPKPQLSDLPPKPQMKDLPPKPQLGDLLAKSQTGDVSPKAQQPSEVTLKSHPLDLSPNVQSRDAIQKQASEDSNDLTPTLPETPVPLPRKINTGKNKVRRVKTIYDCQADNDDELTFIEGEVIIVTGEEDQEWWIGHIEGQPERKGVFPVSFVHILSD
UniProt Q92974: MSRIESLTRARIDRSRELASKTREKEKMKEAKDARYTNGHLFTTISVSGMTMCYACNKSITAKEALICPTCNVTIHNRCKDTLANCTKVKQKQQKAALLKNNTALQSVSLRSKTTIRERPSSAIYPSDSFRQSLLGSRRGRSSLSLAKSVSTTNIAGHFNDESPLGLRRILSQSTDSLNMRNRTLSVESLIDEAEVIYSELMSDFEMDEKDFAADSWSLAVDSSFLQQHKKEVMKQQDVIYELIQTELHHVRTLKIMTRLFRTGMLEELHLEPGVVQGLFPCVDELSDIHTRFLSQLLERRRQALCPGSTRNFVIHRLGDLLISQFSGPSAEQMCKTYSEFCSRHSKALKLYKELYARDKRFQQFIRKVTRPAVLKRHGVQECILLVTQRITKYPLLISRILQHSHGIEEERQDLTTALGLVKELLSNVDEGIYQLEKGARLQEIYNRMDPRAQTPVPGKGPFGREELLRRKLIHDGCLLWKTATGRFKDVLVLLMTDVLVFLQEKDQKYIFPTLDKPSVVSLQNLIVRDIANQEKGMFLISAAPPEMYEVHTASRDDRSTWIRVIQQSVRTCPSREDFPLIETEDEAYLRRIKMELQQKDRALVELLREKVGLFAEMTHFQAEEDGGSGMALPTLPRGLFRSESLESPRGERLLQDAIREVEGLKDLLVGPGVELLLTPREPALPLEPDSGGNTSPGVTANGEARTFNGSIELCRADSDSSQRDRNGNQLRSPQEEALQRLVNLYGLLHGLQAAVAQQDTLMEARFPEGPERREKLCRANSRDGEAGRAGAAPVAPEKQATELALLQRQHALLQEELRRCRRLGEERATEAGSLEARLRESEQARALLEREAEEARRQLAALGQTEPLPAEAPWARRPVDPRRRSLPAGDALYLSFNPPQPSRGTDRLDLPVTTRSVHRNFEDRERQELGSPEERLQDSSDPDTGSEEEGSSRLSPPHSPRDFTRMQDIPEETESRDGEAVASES
UniProt Q8IWW6: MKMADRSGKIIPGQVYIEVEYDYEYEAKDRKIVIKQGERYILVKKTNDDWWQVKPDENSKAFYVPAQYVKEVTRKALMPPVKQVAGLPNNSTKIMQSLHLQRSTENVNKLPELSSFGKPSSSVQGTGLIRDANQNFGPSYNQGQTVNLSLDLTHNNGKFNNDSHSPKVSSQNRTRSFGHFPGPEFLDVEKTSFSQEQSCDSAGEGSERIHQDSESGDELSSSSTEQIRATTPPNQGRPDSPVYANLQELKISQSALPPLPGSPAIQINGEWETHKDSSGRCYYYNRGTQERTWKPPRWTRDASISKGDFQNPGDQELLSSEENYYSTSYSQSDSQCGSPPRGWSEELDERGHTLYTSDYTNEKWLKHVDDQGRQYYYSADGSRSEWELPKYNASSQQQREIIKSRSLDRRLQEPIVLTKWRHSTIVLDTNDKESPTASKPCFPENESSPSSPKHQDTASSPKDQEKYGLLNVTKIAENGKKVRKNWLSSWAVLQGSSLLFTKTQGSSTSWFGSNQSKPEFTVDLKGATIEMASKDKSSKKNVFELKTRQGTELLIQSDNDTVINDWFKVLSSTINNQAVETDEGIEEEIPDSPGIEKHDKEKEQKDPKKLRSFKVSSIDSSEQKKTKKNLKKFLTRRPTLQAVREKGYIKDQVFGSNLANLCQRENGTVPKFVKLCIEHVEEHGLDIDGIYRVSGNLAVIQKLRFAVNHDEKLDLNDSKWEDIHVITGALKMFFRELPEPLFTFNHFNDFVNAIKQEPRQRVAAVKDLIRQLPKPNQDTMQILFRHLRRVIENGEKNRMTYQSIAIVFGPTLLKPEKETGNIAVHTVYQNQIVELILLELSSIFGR
UniProt Q9Y576: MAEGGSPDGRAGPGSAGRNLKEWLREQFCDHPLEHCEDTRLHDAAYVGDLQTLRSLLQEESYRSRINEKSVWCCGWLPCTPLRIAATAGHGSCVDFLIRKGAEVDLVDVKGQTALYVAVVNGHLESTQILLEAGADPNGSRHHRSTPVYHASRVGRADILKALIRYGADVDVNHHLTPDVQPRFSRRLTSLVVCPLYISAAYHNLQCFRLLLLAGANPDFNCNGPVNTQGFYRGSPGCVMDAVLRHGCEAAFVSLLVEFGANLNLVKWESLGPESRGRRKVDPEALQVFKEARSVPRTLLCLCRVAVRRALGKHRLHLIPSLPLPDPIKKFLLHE
UniProt Q8NEU8: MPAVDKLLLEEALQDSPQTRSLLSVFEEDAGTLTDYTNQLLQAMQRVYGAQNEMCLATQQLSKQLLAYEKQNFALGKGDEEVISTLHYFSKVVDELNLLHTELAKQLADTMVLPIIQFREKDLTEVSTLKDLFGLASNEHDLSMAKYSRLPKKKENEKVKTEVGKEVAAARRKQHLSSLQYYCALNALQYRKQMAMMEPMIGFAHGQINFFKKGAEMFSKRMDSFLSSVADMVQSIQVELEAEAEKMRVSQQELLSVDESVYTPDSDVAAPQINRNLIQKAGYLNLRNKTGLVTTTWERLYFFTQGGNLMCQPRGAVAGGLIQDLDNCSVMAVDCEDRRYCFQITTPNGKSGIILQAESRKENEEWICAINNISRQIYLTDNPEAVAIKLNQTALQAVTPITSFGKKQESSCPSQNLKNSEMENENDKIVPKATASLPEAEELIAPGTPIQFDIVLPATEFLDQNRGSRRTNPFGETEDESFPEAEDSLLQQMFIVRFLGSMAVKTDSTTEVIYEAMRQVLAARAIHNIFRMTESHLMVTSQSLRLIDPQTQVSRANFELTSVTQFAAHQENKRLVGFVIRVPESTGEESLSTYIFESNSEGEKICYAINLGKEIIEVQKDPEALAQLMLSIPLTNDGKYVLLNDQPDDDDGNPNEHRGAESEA
UniProt Q96BM9: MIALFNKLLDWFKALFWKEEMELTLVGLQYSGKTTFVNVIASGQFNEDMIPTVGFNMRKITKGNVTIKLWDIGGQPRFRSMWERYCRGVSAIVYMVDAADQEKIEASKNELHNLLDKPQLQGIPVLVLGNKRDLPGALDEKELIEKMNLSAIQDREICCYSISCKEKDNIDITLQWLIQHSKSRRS
UniProt Q6P1M9: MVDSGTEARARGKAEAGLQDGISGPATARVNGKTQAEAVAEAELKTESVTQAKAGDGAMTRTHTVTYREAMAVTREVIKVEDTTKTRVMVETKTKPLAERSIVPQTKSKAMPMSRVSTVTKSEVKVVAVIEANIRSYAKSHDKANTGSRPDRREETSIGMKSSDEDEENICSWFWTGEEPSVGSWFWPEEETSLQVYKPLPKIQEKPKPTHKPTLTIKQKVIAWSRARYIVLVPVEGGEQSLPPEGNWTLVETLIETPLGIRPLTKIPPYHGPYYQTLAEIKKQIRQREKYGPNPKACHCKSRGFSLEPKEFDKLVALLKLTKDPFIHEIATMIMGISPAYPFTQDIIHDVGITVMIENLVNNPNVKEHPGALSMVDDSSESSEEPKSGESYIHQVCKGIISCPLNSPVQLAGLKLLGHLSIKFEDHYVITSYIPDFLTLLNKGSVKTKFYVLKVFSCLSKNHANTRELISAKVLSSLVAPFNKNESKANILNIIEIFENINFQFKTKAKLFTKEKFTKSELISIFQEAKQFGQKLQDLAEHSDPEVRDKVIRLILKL
UniProt O00192: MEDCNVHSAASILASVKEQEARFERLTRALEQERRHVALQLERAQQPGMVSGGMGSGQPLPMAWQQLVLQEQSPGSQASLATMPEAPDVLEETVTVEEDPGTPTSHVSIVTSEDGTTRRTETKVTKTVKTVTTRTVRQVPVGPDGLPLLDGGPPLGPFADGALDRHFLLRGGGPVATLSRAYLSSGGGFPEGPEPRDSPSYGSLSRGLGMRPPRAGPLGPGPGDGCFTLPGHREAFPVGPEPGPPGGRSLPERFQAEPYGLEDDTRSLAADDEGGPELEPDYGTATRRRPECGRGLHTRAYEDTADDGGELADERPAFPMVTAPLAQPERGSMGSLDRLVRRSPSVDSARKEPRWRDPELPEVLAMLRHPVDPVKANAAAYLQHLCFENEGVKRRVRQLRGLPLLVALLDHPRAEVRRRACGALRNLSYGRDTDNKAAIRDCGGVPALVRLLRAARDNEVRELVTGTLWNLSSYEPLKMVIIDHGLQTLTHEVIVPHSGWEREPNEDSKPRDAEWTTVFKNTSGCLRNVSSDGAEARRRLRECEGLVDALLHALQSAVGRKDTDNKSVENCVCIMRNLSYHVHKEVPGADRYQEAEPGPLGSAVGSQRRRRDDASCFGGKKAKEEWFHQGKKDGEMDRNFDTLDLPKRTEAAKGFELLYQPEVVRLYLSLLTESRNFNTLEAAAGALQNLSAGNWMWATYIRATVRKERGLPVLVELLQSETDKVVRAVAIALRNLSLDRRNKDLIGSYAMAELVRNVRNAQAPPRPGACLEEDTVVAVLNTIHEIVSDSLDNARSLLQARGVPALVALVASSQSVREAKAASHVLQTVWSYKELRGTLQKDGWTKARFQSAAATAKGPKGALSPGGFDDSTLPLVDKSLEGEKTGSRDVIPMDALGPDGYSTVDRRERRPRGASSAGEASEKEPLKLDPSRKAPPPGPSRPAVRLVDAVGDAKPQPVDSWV
UniProt Q96BI3, whole entry, looked up: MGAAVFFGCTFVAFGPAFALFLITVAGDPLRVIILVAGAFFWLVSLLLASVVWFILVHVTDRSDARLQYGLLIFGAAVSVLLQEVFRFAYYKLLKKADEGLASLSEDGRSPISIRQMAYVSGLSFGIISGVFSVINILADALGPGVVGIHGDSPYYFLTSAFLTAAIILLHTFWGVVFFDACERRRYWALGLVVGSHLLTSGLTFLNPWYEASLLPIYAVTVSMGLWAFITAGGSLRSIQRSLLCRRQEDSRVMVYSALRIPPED

How the values were obtained:
Assay in all cases: log2 fold change, soluble protein after heating vs DMSO (PISA); higher = thermal stabilisation; K562 lysate, 10 uM; active = over 0.2 and 3.5 SD of the protein, either way, in both replicates (recomputed)
alvocidib = compound: CN1CC[C@H](c2c(O)cc(O)c3c(=O)cc(-c4ccccc4Cl)oc23)[C@H](O)C1 [alvocidib]
Summary of the method: (§1)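 Dounce homogenisation of K562 pellets in PBS pH 7.4 with 1 mM MgCl2 produced a crude extract, used at 1 mg/mL protein. Exposure to 10 μM compound lasted 30 min, and aliquots were then heated for 3 min across 48°C-58°C, pooled and brought to 0.5% NP-40 at 4°C. The supernatant after 21,000xg for 90 min was quantified by TMTpro 16plex LC-MS/MS with channel sums equalised. Duplicate values are given as log-two fold change in thermal stability relative to solvent controls.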

Tubastatin A = compound: CN1CCc2c(c3ccccc3n2Cc2ccc(C(=O)NO)cc2)C1 [Tubastatin A]
Summary of the method: as §1

[1] = compound: CNC(=O)C1=CC=CC=C1NC2=NC(=NC=C2Cl)NC3=C(C=C(C=C3)N4CCOCC4)OC
Summary of the method: as §1

defactinib = compound: CNC(=O)c1ccc(Nc2ncc(C(F)(F)F)c(NCc3nccnc3N(C)S(C)(=O)=O)n2)cc1 [defactinib]
Summary of the method: as §1

[2] = compound: CNc1nc(-c2ccc3c(N)n[nH]c3c2)cc(N2C[C@@H](C(=O)NC3CCCCC3)CC[C@H]2C)n1
Summary of the method: as §1

encorafenib = compound: COC(=O)N[C@@H](C)CNc1nccc(-c2cn(C(C)C)nc2-c2cc(Cl)cc(NS(C)(=O)=O)c2F)n1 [encorafenib]
Summary of the method: as §1

[3] = compound: COC(=O)[C@H](CCSC)NC(=O)C1=C(C=C(C=C1)NC[C@H](CS)N)C2=CC=CC=C2
Summary of the method: as §1

alisertib = compound: COc1cc(Nc2ncc3c(n2)-c2ccc(Cl)cc2C(c2c(F)cccc2OC)=NC3)ccc1C(=O)O [alisertib]
Summary of the method: as §1

[4] = compound: COc1cc2nc(-c3cc(F)ccc3O)nc(N[C@@H]3CNC[C@H]3C(C)(C)O)c2cc1OC
Summary of the method: as §1

gefitinib = compound: COc1cc2ncnc(Nc3ccc(F)c(Cl)c3)c2cc1OCCCN1CCOCC1 [gefitinib]
Summary of the method: as §1

lapatinib = compound: CS(=O)(=O)CCNCc1ccc(-c2ccc3ncnc(Nc4ccc(OCc5cccc(F)c5)c(Cl)c4)c3c2)o1 [lapatinib]
Summary of the method: as §1

pictilisib = compound: CS(=O)(=O)N1CCN(Cc2cc3nc(-c4cccc5[nH]ncc45)nc(N4CCOCC4)c3s2)CC1 [pictilisib]
Summary of the method: as §1

crizotinib = compound: C[C@@H](Oc1cc(-c2cnn(C3CCNCC3)c2)cnc1N)c1c(Cl)ccc(F)c1Cl [crizotinib]
Summary of the method: as §1

[5] = compound: C[C@H](C1=CC=C(C=C1)C(=O)NC2=C3C=CNC3=NC=C2)N
Summary of the method: as §1

duvelisib = compound: C[C@H](Nc1ncnc2nc[nH]c12)c1cc2cccc(Cl)c2c(=O)n1-c1ccccc1 [duvelisib]
Summary of the method: as §1

gandotinib = compound: Cc1cc(Nc2cc(CN3CCOCC3)c3nc(C)c(Cc4ccc(Cl)cc4F)n3n2)n[nH]1 [gandotinib]
Summary of the method: as §1

tozasertib = compound: Cc1cc(Nc2cc(N3CCN(C)CC3)nc(Sc3ccc(NC(=O)C4CC4)cc3)n2)n[nH]1 [tozasertib]
Summary of the method: as §1

doramapimod = compound: Cc1ccc(-n2nc(C(C)(C)C)cc2NC(=O)Nc2ccc(OCCN3CCOCC3)c3ccccc23)cc1 [doramapimod]
Summary of the method: as §1

bafetinib = compound: Cc1ccc(NC(=O)c2ccc(CN3CC[C@H](N(C)C)C3)c(C(F)(F)F)c2)cc1Nc1nccc(-c2cncnc2)n1 [bafetinib]
Summary of the method: as §1

[6] = compound: Cc1cccc(CC(=O)N2CCc3c2ccc(-c2cn(C)c4ncnc(N)c24)c3F)n1
Summary of the method: as §1

Row | Target | log2 fold change (alvocidib) | log2 fold change (Tubastatin A) | log2 fold change [1] | log2 fold change (defactinib) | log2 fold change [2] | log2 fold change (encorafenib) | log2 fold change [3] | log2 fold change (alisertib) | log2 fold change [4] | log2 fold change (gefitinib) | log2 fold change (lapatinib) | log2 fold change (pictilisib) | log2 fold change (crizotinib) | log2 fold change [5] | log2 fold change (duvelisib) | log2 fold change (gandotinib) | log2 fold change (tozasertib) | log2 fold change (doramapimod) | log2 fold change (bafetinib) | log2 fold change [6]
1 | ARFGEF1 (UniProt Q9Y6D6) | inactive: 0.001 | inactive: -0.014 | inactive: 0.013 | inactive: 0.008 | inactive: -0.012 | inactive: 0.015 | inactive: 0.044 | inactive: -0.01 | inactive: 0.001 | inactive: -0.005 | inactive: -0.022 | inactive: -0.027 | inactive: -0.05 | inactive: -0.002 | inactive: 0.01 | inactive: -0.104 | inactive: 0.002 | inactive: -0.015 | inactive: -0.03 | inactive: 0.039
2 | ARMC1 (UniProt Q9NVT9) | inactive: -0.032 | inactive: -0.014 | inactive: 0.011 | inactive: -0.024 | inactive: 0.039 | inactive: 0.016 | inactive: -0.07 | inactive: 0.003 | inactive: 0.01 | inactive: -0.029 | inactive: 0.017 | inactive: -0.019 | inactive: -0.03 | inactive: -0.021 | inactive: -0.006 | inactive: 0.012 | inactive: 0.004 | inactive: 0.031 | inactive: -0.002 | inactive: 0.034
3 | ASAP1 isoform 2 (UniProt Q9ULH1) | inactive: -0.026 | inactive: 0.015 | inactive: -0.003 | inactive: -0.036 | inactive: 0.025 | inactive: -0.03 | inactive: 0.064 | inactive: -0.01 | inactive: 0.006 | inactive: -0.02 | inactive: -0.024 | inactive: -0.026 | inactive: -0.016 | inactive: -0.029 | inactive: -0.012 | inactive: 0.035 | inactive: -0.041 | inactive: -0.001 | inactive: 0.006 | inactive: 0.058
4 | ARHGEF2 (UniProt Q92974) | inactive: -0.009 | inactive: -0.081 | inactive: 0.047 | inactive: -0.004 | inactive: 0.058 | inactive: 0.07 | inactive: 0.071 | inactive: 0.018 | inactive: -0.005 | inactive: 0.007 | inactive: 0.014 | inactive: 0.005 | inactive: -0.016 | inactive: 0.006 | inactive: -0.017 | inactive: 0.025 | inactive: 0.018 | inactive: 0.089 | inactive: -0.045 | inactive: 0.04
5 | ARHGAP12 isoform 3 (UniProt Q8IWW6) | inactive: -0.129 |  |  | inactive: 0.026 | inactive: -0.03 |  |  |  |  |  |  |  |  | inactive: 0.054 | inactive: -0.068 | inactive: -0.048 |  |  |  | inactive: -0.109
6 | ASB1 (UniProt Q9Y576) | inactive: 0.097 | inactive: -0.013 |  | inactive: -0.025 |  | inactive: 0.322 | inactive: -0.151 | inactive: -0.039 |  | inactive: 0.009 |  | inactive: 0.071 | inactive: 0.029 | inactive: 0.232 |  | inactive: -0.314 | inactive: 0.05 | inactive: -0.048 | inactive: -0.116 | inactive: 0.009
7 | APPL2 isoform 3 (UniProt Q8NEU8) | inactive: 0.026 | inactive: -0.071 | inactive: -0.009 | inactive: 0.048 | inactive: -0.14 | inactive: -0.006 | inactive: 0.066 |  | inactive: 0.021 |  | inactive: -0.024 | inactive: -0.074 | inactive: -0.02 | inactive: -0.201 | inactive: 0.02 | inactive: -0.045 | inactive: 0.018 | inactive: 0.003 | inactive: 0.192 | inactive: -0.024
8 | ARL8A (UniProt Q96BM9) | inactive: 0.082 | inactive: 0.043 | inactive: 0.06 | inactive: 0.019 | inactive: 0.204 | inactive: -0.048 | inactive: -0.03 | inactive: -0.186 | inactive: 0.027 | inactive: 0.013 | inactive: -0.11 | inactive: 0.038 | inactive: 0.091 | active: 0.426 | inactive: -0.078 | inactive: 0 | inactive: -0.063 | inactive: -0.005 | inactive: -0.016 | inactive: -0.088
9 | ARMCX5 (UniProt Q6P1M9) | inactive: 0.029 | inactive: -0.105 | inactive: 0.067 | inactive: 0.014 | inactive: -0.012 | inactive: 0.045 | inactive: 0.023 | inactive: -0.003 | inactive: 0.035 | inactive: 0.035 | inactive: -0.033 | inactive: 0.04 |  | inactive: -0.001 | inactive: -0.114 | inactive: 0.001 | inactive: 0.032 |  | inactive: -0.104 | inactive: 0.078
10 | ARVCF (UniProt O00192) | inactive: -0.068 | inactive: -0.084 | inactive: 0.025 | inactive: -0.037 | inactive: -0.027 | inactive: -0.017 | inactive: 0.021 | inactive: 0 | inactive: 0.117 | inactive: 0.146 | inactive: -0.304 |  | inactive: -0.019 | inactive: -0.086 | inactive: 0.087 | inactive: 0.151 | inactive: 0.028 | inactive: 0.048 |  | inactive: 0.129
11 | APH1A (UniProt Q96BI3) | inactive: 0.129 |  | inactive: -0.053 |  |  | inactive: -0.001 | inactive: -0.159 | inactive: 0.046 | inactive: 0.028 | inactive: -0.037 | inactive: -0.073 | inactive: 0.031 | inactive: -0.034 | inactive: 0.153 |  | inactive: -0.028 | inactive: 0.07 | inactive: -0.029 | inactive: -0.027 | inactive: -0.204
